PubChem BioAssay AID1508597 – Cure First, 2020
Shown is an unselected part of the about 2,100 reagents, under one of the conditions tested. 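Calls flag viability under 80% in either arm, not effects specific to rucaparib; the reference for percent is not stated.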 Entries without a mark were called inactive. Some reagents were tested in more than one well and are listed for each. The record does not give: the 100% reference.

- Aim: 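Survival screen with siRNA in ovarian cancer cells derived from patients, with or without rucaparib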 (primary screen)
- Cells: human ovarian carcinoma lines grown from tumours: OCI-P5x (papillary serous) and OCI-C5x (clear cell)
- Reagent: siRNA pool against human genes, 1.25 pmol siRNA per well
- Duration: 72 h or 96 h, depending on the cell culture
- Treatment: rucaparib 20 µM (about IC30) or vehicle, present until read-out
- Rucaparib or vehicle: Rucaparib
- Cell line: OCI-P5x (serous)
- Measured: 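Luminescent ATP-based viability assay read 72 or 96 h after transfection, depending on culture, given as normalised percent viability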
- Scale: viability, normalised: higher = more viable cells remaining
- Call rule: 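Active when normalised viability falls below 80 percent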
- Meaning of the calls: active = viability under 80%; inactive = viability 80% or more

target | technical replicate | viability, normalised (%)
ALPK2 (GeneID 115701) | 1 | 129
ALPK2 (GeneID 115701) | 2 | 118
ALPK2 (GeneID 115701) | 3 | 131
PIK3CB (GeneID 5291) | 1 | 38.5 (active)
PIK3CB (GeneID 5291) | 2 | 30.7 (active)
PIK3CB (GeneID 5291) | 3 | 31.5 (active)
APEX2 (GeneID 27301) | 1 | 113
APEX2 (GeneID 27301) | 2 | 106
APEX2 (GeneID 27301) | 3 | 96.8
RAE1 (GeneID 8480) | 1 | 68.6 (active)
RAE1 (GeneID 8480) | 2 | 61.4 (active)
RAE1 (GeneID 8480) | 3 | 58 (active)
XPC (GeneID 7508) | 1 | 86.6
XPC (GeneID 7508) | 2 | 90.5
XPC (GeneID 7508) | 3 | 66.5 (active)
FEN1 (GeneID 2237) | 1 | 84.3
FEN1 (GeneID 2237) | 2 | 90.4
FEN1 (GeneID 2237) | 3 | 87.1
COX6C (GeneID 1345) | 1 | 74.7 (active)
COX6C (GeneID 1345) | 2 | 73.3 (active)
COX6C (GeneID 1345) | 3 | 84.4
VRK3 (GeneID 51231) | 1 | 60.2 (active)
VRK3 (GeneID 51231) | 1 | 147
VRK3 (GeneID 51231) | 2 | 134
VRK3 (GeneID 51231) | 2 | 59.6 (active)
VRK3 (GeneID 51231) | 3 | 65.2 (active)
VRK3 (GeneID 51231) | 3 | 120
CDK11A (GeneID 728642) | 1 | 97.3
CDK11A (GeneID 728642) | 1 | 81
CDK11A (GeneID 728642) | 2 | 95.5
CDK11A (GeneID 728642) | 2 | 86.8
CDK11A (GeneID 728642) | 3 | 88.5
CDK11A (GeneID 728642) | 3 | 68.7 (active)
PDE6C (GeneID 5146) | 1 | 36.8 (active)
PDE6C (GeneID 5146) | 2 | 40.1 (active)
PDE6C (GeneID 5146) | 3 | 42 (active)
HK3 (GeneID 3101) | 1 | 69.7 (active)
HK3 (GeneID 3101) | 2 | 56.1 (active)
HK3 (GeneID 3101) | 3 | 55.3 (active)
CHM (GeneID 1121) | 1 | 67.5 (active)
CHM (GeneID 1121) | 2 | 70.8 (active)
CHM (GeneID 1121) | 3 | 62.9 (active)
MAP4K3 (GeneID 8491) | 1 | 123
MAP4K3 (GeneID 8491) | 2 | 102
MAP4K3 (GeneID 8491) | 3 | 88.1
BRCC3 (GeneID 79184) | 1 | 61.3 (active)
BRCC3 (GeneID 79184) | 1 | 85.7
BRCC3 (GeneID 79184) | 2 | 56.8 (active)
BRCC3 (GeneID 79184) | 2 | 77.4 (active)
BRCC3 (GeneID 79184) | 3 | 71.6 (active)
BRCC3 (GeneID 79184) | 3 | 72.4 (active)
PAK1 (GeneID 5058) | 1 | 112
PAK1 (GeneID 5058) | 2 | 110
PAK1 (GeneID 5058) | 3 | 112
TCF20 (GeneID 6942) | 1 | 41.1 (active)
TCF20 (GeneID 6942) | 2 | 52.4 (active)
TCF20 (GeneID 6942) | 3 | 33.9 (active)

Single entries from the list.
Under “viability, normalised (%)”, XPC (GeneID 7508), technical replicate 1 reads 86.6
PDE6C (GeneID 5146), technical replicate 2, viability, normalised (%) = 40.1 (active)
PAK1 (GeneID 5058), technical replicate 2, viability, normalised (%): 110
CHM (GeneID 1121), technical replicate 3, viability, normalised (%) = 62.9 (active)
Entry for MAP4K3 (GeneID 8491), technical replicate 3 under “viability, normalised (%)”: 88.1
Under “viability, normalised (%)”, PAK1 (GeneID 5058), technical replicate 3 reads 112
